In US4139628A, “Amino-spiro[oxa(or thia)cycloalkane-penam]-carboxylic acid derivatives” (U C B, Societe Anonyme, priority 1977, dated 1979):

Tested on: beta-lactamase TEM
Test: hydrolysis kinetics in the presence of beta-lactamase (residual activity)
Assay type: biochemical, Gram-negative bacteria
Details: as compared with ampicillin

| SMILES | resistance to beta-lactamase, in words |
| --- | --- |
| NC(C(=O)NC1C(=O)N2C1SC1(CCSCC1)C2C(=O)O)c1ccccc1 (centres unmarked) [Compound F, 6-(2"-amino-2"-phenylacetamido)-2',3',5',6'-tetrahydro-spiro[penam-2,4'-[4H]thiopyran]-3-carboxylic acid] | increased resistance |
| NC(C(=O)NC1C(=O)N2C1SC1(CC[S+]([O-])CC1)C2C(=O)O)c1ccccc1 (centres unmarked) [Compound J, 6-(2"-amino-2"-phenylacetamido)-2',3',5',6'-tetrahydro-spiro[penam-2,4'-[4H]thiopyran]-3-carboxylic acid 1'-oxide] | No change in behavior |
